Measured values published in publication PMC7786100.
These are yes or no findings as the source states them, for the method shown. In cells and extracts the contact can be indirect. Some binding calls cover weakened binding; strength is not graded here.

T1: Native Ambn (ameloblastin) from porcine enamel matrix protein extract (porcine (endogenous in developing molar enamel)) (UniProt Q28989)
T1 sequence: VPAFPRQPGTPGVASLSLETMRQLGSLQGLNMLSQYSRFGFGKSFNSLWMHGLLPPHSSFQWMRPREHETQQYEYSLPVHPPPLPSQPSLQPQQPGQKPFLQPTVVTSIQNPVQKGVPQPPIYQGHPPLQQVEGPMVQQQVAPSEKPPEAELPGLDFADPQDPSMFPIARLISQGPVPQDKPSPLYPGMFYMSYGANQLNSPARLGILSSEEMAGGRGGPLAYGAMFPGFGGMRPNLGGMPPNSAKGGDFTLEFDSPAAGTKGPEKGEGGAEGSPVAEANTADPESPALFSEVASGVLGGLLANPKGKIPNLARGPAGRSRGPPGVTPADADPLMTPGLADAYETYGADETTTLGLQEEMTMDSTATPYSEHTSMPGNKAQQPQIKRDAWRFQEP

T2: Native Amel (amelogenin) from porcine enamel matrix protein extract (porcine (endogenous in developing molar enamel)) (UniProt P45561)
T2 sequence: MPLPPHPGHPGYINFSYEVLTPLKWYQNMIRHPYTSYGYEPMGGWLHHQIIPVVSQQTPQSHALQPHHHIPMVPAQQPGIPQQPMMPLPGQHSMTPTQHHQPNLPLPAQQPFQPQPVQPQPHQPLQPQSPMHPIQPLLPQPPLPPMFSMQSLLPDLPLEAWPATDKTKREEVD


Tests used:
[1] = target: T1, Native Ambn (ameloblastin) from porcine enamel matrix protein extract (porcine (endogenous in developing molar enamel)); assay: co-IP; Pierce co-IP kit; anti-Ambn antibody column; native porcine enamel matrix protein extract loaded as a mixture of all enamel matrix proteins; eluate read by Western blot and mass spectrometry
[2] = target: T2, Native Amel (amelogenin) from porcine enamel matrix protein extract (porcine (endogenous in developing molar enamel)); assay: co-IP; Pierce co-IP kit; anti-Amel antibody column; native porcine enamel matrix protein extract loaded as a mixture of all enamel matrix proteins; eluate read by Western blot and mass spectrometry

| binding [1] | binding [2] | Binder |
| --- | --- | --- |
| binds |  | Native Amel (amelogenin) from porcine enamel matrix protein extract (protein, UniProt P45561 17-189) MPLPPHPGHPGYINFSYEVLTPLKWYQNMIRHPYTSYGYEPMGGWLHHQIIPVVSQQTPQSHALQPHHHIPMVPAQQPGIPQQPMMPLPGQHSMTPTQHHQPNLPLPAQQPFQPQPVQPQPHQPLQPQSPMHPIQPLLPQPPLPPMFSMQSLLPDLPLEAWPATDKTKREEVD |
|  | binds | Native Ambn (ameloblastin) from porcine enamel matrix protein extract (protein, UniProt Q28989 27-421) VPAFPRQPGTPGVASLSLETMRQLGSLQGLNMLSQYSRFGFGKSFNSLWMHGLLPPHSSFQWMRPREHETQQYEYSLPVHPPPLPSQPSLQPQQPGQKPFLQPTVVTSIQNPVQKGVPQPPIYQGHPPLQQVEGPMVQQQVAPSEKPPEAELPGLDFADPQDPSMFPIARLISQGPVPQDKPSPLYPGMFYMSYGANQLNSPARLGILSSEEMAGGRGGPLAYGAMFPGFGGMRPNLGGMPPNSAKGGDFTLEFDSPAAGTKGPEKGEGGAEGSPVAEANTADPESPALFSEVASGVLGGLLANPKGKIPNLARGPAGRSRGPPGVTPADADPLMTPGLADAYETYGADETTTLGLQEEMTMDSTATPYSEHTSMPGNKAQQPQIKRDAWRFQEP |
